Out of some 400,000 compounds screened, about 5,500 (1.4%) were called active. This list was built around the results that the source calls inconclusive (neither active nor inactive); the mix of calls is not that of the screen. Calls come from the whole dose curve; as a rule, active = well fitted cell-killing curve with a large enough effect; inconclusive = small, poorly fitted or top-dose-only effect, or effect the other way; inactive = flat fitted curve, though single readings scatter. Potencies beside an inconclusive call are fits to weak or partial responses and may not hold up.
Assay: qHTS assay for MDR1-selective chemotherapeutics: Primary screen using the parental adenocarcinoma cell KB-3-1; note: nearly all actives have a fitted effect of over 60% in size
Settings: KB-3-1 viability, CellTiter-Glo ATP luminescence, 72 h; series mostly up to 46.1 µM
Text: A prime difficulty in effectively treating cancer is the development of cellular resistance to multiple structurally unrelated anticancer drugs, a phenomenon known as multidrug resistance (MDR). […] Numerous strategies to overcome P-gp-mediated MDR have been explored, including the design of drugs that evade recognition and efflux, and development of inhibitors to block efflux and restore drug accumulation. […] An alternative approach is to exploit resistance by identifying drugs that target MDR cells over the non-resistant parental cells from which they were selected. […] The development of MDR1-selective agents represents a new strategy for resolving multidrug resistance, as it remains a long-standing clinical challenge for cancer chemotherapy.
Our goal is to identify compounds that selectively kill P-gp-expressing MDR cells. We will identify MDR1-selective compounds by comparing toxicity of compounds in the screening library against parental, drug-naive (KB-3-1) adenocarcinoma cells as well as their drug-selected MDR sub-line (KB-V1). The differential toxicity of compounds against these two cell lines will be used to identify MDR1-selective compounds, whose cytotoxicity is potentiated, rather than diminished, by P-gp expression. This assay will be utilized to conduct a quantitative high-throughput screen (qHTS) in collaboration with the NIH Chemical Genomics Center to identify selective agents, and probe hits arising from the screen will be validated using secondary assays and characterized through a well-established follow-up research program. This screen was run against the entire NCGC library collection of about 400,000 compounds.
NIH Molecular Libraries Probe Production Network [MLPCN]
NIH Chemical Genomics Center [NCGC]
PI: Michael Gottesman PhD, National Cancer Institute, NIH
Briefly, 5 microL of media containing either KB-3-1 cells (columns 1-2, 4-48) are dispensed into Greiner white, treated solid-bottom 1536-well assay plates (media-only control is added to column 3). Compounds are then transferred via Kalypsys pin tool equipped with 1536-pin array (10 nL slotted pins, V&P Scientific, San Diego, CA). Following addition of compound, the plates are incubated at 37 degrees C for 72 hours. CellTiter-Glo (2.5 µL/well) is then added, and the plates are read in a ViewLux reader (Perkin-Elmer, clear luminescence filter, 1 second exposure, 1x binning) following a 10 minute incubation. All cells are dispensed in DMEM phenol-red free media containing 10% FBS.
Library plates were screened starting from the lowest and proceeding to the highest concentration. Vehicle-only plates, with DMSO being pin-transferred to columns 5-48, will be inserted uniformly at the beginning and the end of each library in order to monitor and record any shifts in the background, which can be affected by reagent dispensers or loss in enzyme activity over time. Screening data will be corrected, normalized, and concentration-effect relationships will be derived by using publicly-available NCGC, NCATS curve fitting algorithms (http://ncgc.nih.gov/pub/openhts).
Potency is the fitted concentration of half-maximal effect.

Compound	Potency
O=C(/C=C/c1ccc2c(c1)OCO2)c1c(O)n(CCc2ccccc2)c(=O)[nH]c1=O	inconclusive: 20.6 µM [cytotoxic, single point]
CC1CCCC(C)N1/N=C/c1c[nH]c2ccc(Br)cc12 (configuration not stated)	inconclusive: 32.6 µM [cytotoxic, partial curve, poor fit]
CCCCCn1c(=O)c(C(=O)Nc2nc3ccccc3[nH]2)c(O)c2ccccc21	inconclusive: 7.31 µM [cytotoxic, partial curve, poor fit]
CCOP(=O)(NC(C)C)Oc1ccc(SC)c(C)c1 (configuration not stated)	inactive
CCOc1ccc(C2CC(c3c(O)n(C)c(=O)n(C)c3=O)=NN2)cc1 (configuration not stated)	inconclusive: 16.4 µM [cytotoxic, single point]
CN(Cc1cccc(-c2ccncc2)c1)C(=O)Oc1ccc([N+](=O)[O-])cc1	inconclusive: 23.1 µM [cytotoxic, single point]
O=c1cc(C(F)(F)F)c2cc3c4c(c2o1)CCCN4CCC3	inactive
CN(C)CCn1cnc2ccccc21	inactive
Cc1ccc(C(=O)CN2CCOCC2)cc1	inactive
CC(=CCOc1ccc2ccc(=O)oc2c1)C1=CC(=O)C(C)(C)O1	inconclusive: 10.3 µM [cytotoxic, partial curve]
C/C=C(\C)C(=O)N[C@@H](c1ccccc1)[C@@H](O)C(=O)O[C@H]1C[C@@]2(O)[C@@H](OC(=O)c3ccccc3)C3[C@](C)(C(=O)[C@H](O)C(=C1C)C2(C)C)[C@@H](O)C[C@H]1OC[C@@]31OC(C)=O (some centres not stated)	inconclusive: 0.0058 µM [cytotoxic, full curve]
CCOC(=O)c1sc(/N=C/c2c(O)n(-c3ccccc3)c(=O)[nH]c2=O)c(C#N)c1C	inconclusive: 16.4 µM [cytotoxic, single point]
COc1ccc(-n2nnnc2C(c2ccccc2OC(F)(F)F)N2CCC(n3c(=O)[nH]c4ccccc43)CC2)cc1 (configuration not stated)	inconclusive: 29.1 µM [cytotoxic, single point]
NC(Cc1ccc(F)cc1)c1csc(Nc2ncccn2)n1 (configuration not stated)	inconclusive: 29.1 µM [cytotoxic, partial curve, poor fit]
Cc1ccc(C2=NC(C)(C)N3C2C3c2ccc([N+](=O)[O-])cc2)cc1 (configuration not stated)	inconclusive: 29.1 µM [cytotoxic, single point]
O=[N+]([O-])c1cccc(CN2CCN(Cc3ccc(Br)cc3)CC2)c1	inconclusive: 16.4 µM [cytotoxic, single point]
CC(C)CNC(=O)c1c(N)n(Cc2ccco2)c2nc3ccccc3nc12	inconclusive: 18.4 µM [cytotoxic, single point]

3 entries already listed, sorted by molecular weight, largest number first:
Compound	Potency
CCOC(=O)c1sc(/N=C/c2c(O)n(-c3ccccc3)c(=O)[nH]c2=O)c(C#N)c1C	inconclusive: 16.4 µM [cytotoxic, single point]
CCCCCn1c(=O)c(C(=O)Nc2nc3ccccc3[nH]2)c(O)c2ccccc21	inconclusive: 7.31 µM [cytotoxic, partial curve, poor fit]
Cc1ccc(C(=O)CN2CCOCC2)cc1	inactive
